Reference: patent US5273879, “Amplification method for polynucleotide assays” (Syntex (U.S.A.) Inc.)

Test system: DraI restriction endonuclease
Assay: enzyme reaction in vitro
Settings: cleaves extended duplex at 37 C; no bands without DraI; purified native protein

GTAAAACGACGGCCAGTGAATTC [23 base primer on M13mp19 Dra I clone]
activity on this sequence: active

For at least one entry, the source does not settle the construct or the ends of the probe.
